The nature of the data set: Boc solid-phase peptide synthesis; methylbenzhydrylamine resin; diisopropylcarbodiimide; TBTU for recoupling. Conditions: whole synthesis.

Substance “Acetil-Toac-Ser-Tyr-Ser-Nle-Glu-His-DPhe-Arg-Trp-Gly-Lys-Pro-Val-CONH2 (FRWGKPV; N-acetyl-Toac, Nle, D-Phe, C-terminal amide; printed: Phe-Arg-Trp-Gly-Lys-Pro-Val-)” gave a crude yield of 83%.
